# Source: the supplement of paper PMC8728848
# This is one part of the list.
# B1: Loc1 (Escherichia coli) (protein)
# chain: APCALTNVGEQRGTYILKPLSMKGNLTAEKIENTGNIIECTDLQETTNAIKVHFLTQNALKFKVGSRHYIINFPFEYDGKKIELPGKSSYNLEEMLSAINFTIPYSIASVSDSSNTADIFPGTPFPLLFEIEVSSCTGNNTNCNSVRFNYNLNTILQVNLMTHHHHHH
# Key:
# Assay in all cases: glycan array binding signal (z-score within array); higher = stronger binding
# Conditions in all cases: glycan notation: IUPAC condensed, linker removed
# [1] = target: Glc(b1-6)Glc
# In short: (§1)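 Arrays were curated from the Consortium for Functional Glycomics database, 3228 in total, and kept only where the protein sequence was available. Binding is expressed as a within-array Z-score. This score was averaged across arrays of the same protein sequence at different concentrations or buffers and across linkers, and negative values can be read as non-binding.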
# [2] = target: GlcA(b1-3)Gal
# In short: as §1
# [3] = target: GlcA(b1-3)GlcNAc
# In short: as §1
# [4] = target: GlcA(b1-6)Gal
# In short: as §1
# [5] = target: GlcA3S(b1-3)Gal(b1-4)GlcNAc(b1-2)Man
# In short: as §1
# [6] = target: GlcA3S(b1-3)Gal(b1-4)GlcNAc(b1-3)Gal(b1-4)Glc
# In short: as §1
# [7] = target: GlcNAc(a1-3)Gal(b1-4)GlcNAc
# In short: as §1
# [8] = target: GlcNAc(a1-4)Gal(b1-3)GlcNAc
# In short: as §1
# [9] = target: GlcNAc(a1-4)Gal(b1-4)GalNAc
# In short: as §1
# [10] = target: GlcNAc(a1-4)Gal(b1-4)GlcNAc
# In short: as §1
# [11] = target: GlcNAc(a1-4)Gal(b1-4)GlcNAc(b1-3)Gal(b1-4)Glc
# In short: as §1
# [12] = target: GlcNAc(a1-4)Gal(b1-4)GlcNAc(b1-3)Gal(b1-4)GlcNAc
# In short: as §1
# [13] = target: GlcNAc(a1-4)Gal(b1-4)GlcNAc(b1-3)Gal(b1-4)GlcNAc(b1-3)Gal(b1-4)GlcNAc
# In short: as §1
# [14] = target: GlcNAc(a1-4)Gal(b1-4)GlcNAc(b1-3)Gal(b1-4)[Fuc(a1-3)]GlcNAc(b1-3)Gal(b1-4)[Fuc(a1-3)]GlcNAc
# In short: as §1
# [15] = target: GlcNAc(a1-6)Gal(b1-4)GlcNAc
# In short: as §1
# [16] = target: GlcNAc(b1-2)Gal(b1-3)GalNAc
# In short: as §1
# [17] = target: GlcNAc(b1-2)Man(a1-3)[GlcNAc(b1-2)Man(a1-6)]Man(b1-4)GlcNAc(b1-4)GlcNAc
# In short: as §1
# [18] = target: GlcNAc(b1-2)Man(a1-3)[GlcNAc(b1-2)Man(a1-6)]Man(b1-4)GlcNAc(b1-4)[Fuc(a1-6)]GlcNAc
# In short: as §1
# [19] = target: GlcNAc(b1-2)Man(a1-3)[GlcNAc(b1-4)][GlcNAc(b1-2)Man(a1-6)]Man(b1-4)GlcNAc(b1-4)GlcNAc
# In short: as §1
# [20] = target: GlcNAc(b1-2)Man(a1-3)[GlcNAc(b1-4)][GlcNAc(b1-2)Man(a1-6)]Man(b1-4)GlcNAc(b1-4)[Fuc(a1-6)]GlcNAc
# In short: as §1
# [21] = target: GlcNAc(b1-2)[GlcNAc(b1-4)]Man(a1-3)[GlcNAc(b1-2)Man(a1-6)]Man(b1-4)GlcNAc(b1-4)GlcNAc
# In short: as §1
# [22] = target: GlcNAc(b1-2)[GlcNAc(b1-4)]Man(a1-3)[GlcNAc(b1-4)][GlcNAc(b1-2)Man(a1-6)]Man(b1-4)GlcNAc(b1-4)GlcNAc
# In short: as §1
# [23] = target: GlcNAc(b1-2)[GlcNAc(b1-4)]Man(a1-3)[GlcNAc(b1-4)][GlcNAc(b1-2)[GlcNAc(b1-6)]Man(a1-6)]Man(b1-4)GlcNAc(b1-4)GlcNAc
# In short: as §1
# [24] = target: GlcNAc(b1-2)[GlcNAc(b1-4)]Man(a1-3)[GlcNAc(b1-4)][GlcNAc(b1-2)[GlcNAc(b1-6)]Man(a1-6)]Man(b1-4)GlcNAc(b1-4)[Fuc(a1-6)]GlcNAc
# In short: as §1
# [25] = target: GlcNAc(b1-2)[GlcNAc(b1-6)]Man(a1-6)[GlcNAc(b1-2)Man(a1-3)]Man(b1-4)GlcNAc(b1-4)GlcNAc
# In short: as §1
# [26] = target: GlcNAc(b1-2)[GlcNAc(b1-6)]Man(a1-6)[GlcNAc(b1-2)Man(a1-3)]Man(b1-4)GlcNAc(b1-4)[Fuc(a1-6)]GlcNAc
# In short: as §1
# [27] = target: GlcNAc(b1-2)[GlcNAc(b1-6)]Man(a1-6)[GlcNAc(b1-4)][GlcNAc(b1-2)Man(a1-3)]Man(b1-4)GlcNAc(b1-4)GlcNAc
# In short: as §1
# [28] = target: GlcNAc(b1-3)Fuc
# In short: as §1
# [29] = target: GlcNAc(b1-3)Gal
# In short: as §1
# [30] = target: GlcNAc(b1-3)Gal(b1-3)GalNAc
# In short: as §1
# [31] = target: GlcNAc(b1-3)Gal(b1-4)Glc
# In short: as §1
# [32] = target: GlcNAc(b1-3)Gal(b1-4)GlcNAc
# In short: as §1
# [33] = target: GlcNAc(b1-3)Gal(b1-4)GlcNAc(b1-2)Man(a1-3)[GlcNAc(b1-3)Gal(b1-4)GlcNAc(b1-2)Man(a1-6)]Man(b1-4)GlcNAc(b1-4)GlcNAc
# In short: as §1
# [34] = target: GlcNAc(b1-3)Gal(b1-4)GlcNAc(b1-2)Man(a1-3)[GlcNAc(b1-3)Gal(b1-4)GlcNAc(b1-2)Man(a1-6)]Man(b1-4)GlcNAc(b1-4)[Fuc(a1-6)]GlcNAc
# In short: as §1
# [35] = target: GlcNAc(b1-3)Gal(b1-4)GlcNAc(b1-2)[GlcNAc(b1-3)Gal(b1-4)GlcNAc(b1-6)]Man(a1-6)[GlcNAc(b1-3)Gal(b1-4)GlcNAc(b1-2)Man(a1-3)]Man(b1-4)GlcNAc(b1-4)GlcNAc
# In short: as §1
# [36] = target: GlcNAc(b1-3)Gal(b1-4)GlcNAc(b1-3)Gal(b1-4)GlcNAc
# In short: as §1
# [37] = target: GlcNAc(b1-3)Gal(b1-4)GlcNAc(b1-3)Gal(b1-4)GlcNAc(b1-2)Man(a1-3)[GlcNAc(b1-3)Gal(b1-4)GlcNAc(b1-3)Gal(b1-4)GlcNAc(b1-2)Man(a1-6)]Man(b1-4)GlcNAc(b1-4)GlcNAc
# In short: as §1
# [38] = target: GlcNAc(b1-3)Gal(b1-4)GlcNAc(b1-3)Gal(b1-4)GlcNAc(b1-2)Man(a1-3)[GlcNAc(b1-3)Gal(b1-4)GlcNAc(b1-3)Gal(b1-4)GlcNAc(b1-2)Man(a1-6)]Man(b1-4)GlcNAc(b1-4)[Fuc(a1-6)]GlcNAc
# In short: as §1
# [39] = target: GlcNAc(b1-3)Gal(b1-4)GlcNAc(b1-3)Gal(b1-4)GlcNAc(b1-2)[GlcNAc(b1-3)Gal(b1-4)GlcNAc(b1-3)Gal(b1-4)GlcNAc(b1-6)]Man(a1-6)[GlcNAc(b1-3)Gal(b1-4)GlcNAc(b1-3)Gal(b1-4)GlcNAc(b1-2)Man(a1-3)]Man(b1-4)GlcNAc(b1-4)[Fuc(a1-6)]GlcNAc
# In short: as §1
# [40] = target: GlcNAc(b1-3)Gal(b1-4)GlcNAc(b1-3)Gal(b1-4)GlcNAc(b1-3)Gal(b1-4)GlcNAc(b1-2)Man(a1-3)[GlcNAc(b1-3)Gal(b1-4)GlcNAc(b1-3)Gal(b1-4)GlcNAc(b1-3)Gal(b1-4)GlcNAc(b1-2)Man(a1-6)]Man(b1-4)GlcNAc(b1-4)GlcNAc
# In short: as §1
# [41] = target: GlcNAc(b1-3)Gal(b1-4)GlcNAc(b1-3)Gal(b1-4)GlcNAc(b1-3)Gal(b1-4)GlcNAc(b1-2)Man(a1-3)[GlcNAc(b1-3)Gal(b1-4)GlcNAc(b1-3)Gal(b1-4)GlcNAc(b1-3)Gal(b1-4)GlcNAc(b1-2)Man(a1-6)]Man(b1-4)GlcNAc(b1-4)[Fuc(a1-6)]GlcNAc
# In short: as §1
# [42] = target: GlcNAc(b1-3)Gal(b1-4)GlcNAc(b1-3)Gal(b1-4)GlcNAc(b1-3)Gal(b1-4)GlcNAc(b1-2)[GlcNAc(b1-3)Gal(b1-4)GlcNAc(b1-3)Gal(b1-4)GlcNAc(b1-3)Gal(b1-4)GlcNAc(b1-6)]Man(a1-6)[GlcNAc(b1-3)Gal(b1-4)GlcNAc(b1-3)Gal(b1-4)GlcNAc(b1-3)Gal(b1-4)GlcNAc(b1-2)Man(a1-3)]Man(b1-4)GlcNAc(b1-4)[Fuc(a1-6)]GlcNAc
# In short: as §1
# [43] = target: GlcNAc(b1-3)Gal(b1-4)GlcNAc(b1-3)Gal(b1-4)GlcNAc(b1-3)Gal(b1-4)GlcNAc(b1-3)Gal(b1-4)GlcNAc(b1-2)Man(a1-3)[GlcNAc(b1-3)Gal(b1-4)GlcNAc(b1-3)Gal(b1-4)GlcNAc(b1-3)Gal(b1-4)GlcNAc(b1-3)Gal(b1-4)GlcNAc(b1-2)Man(a1-6)]Man(b1-4)GlcNAc(b1-4)GlcNAc
# In short: as §1
# [44] = target: GlcNAc(b1-3)Gal(b1-4)GlcNAc(b1-3)Gal(b1-4)GlcNAc(b1-3)Gal(b1-4)GlcNAc(b1-3)Gal(b1-4)GlcNAc(b1-2)Man(a1-3)[GlcNAc(b1-3)Gal(b1-4)GlcNAc(b1-3)Gal(b1-4)GlcNAc(b1-3)Gal(b1-4)GlcNAc(b1-3)Gal(b1-4)GlcNAc(b1-2)Man(a1-6)]Man(b1-4)GlcNAc(b1-4)[Fuc(a1-6)]GlcNAc
# In short: as §1
# [45] = target: GlcNAc(b1-3)Gal(b1-4)GlcNAc(b1-3)Gal(b1-4)GlcNAc(b1-3)Gal(b1-4)GlcNAc(b1-3)Gal(b1-4)GlcNAc(b1-2)[GlcNAc(b1-3)Gal(b1-4)GlcNAc(b1-3)Gal(b1-4)GlcNAc(b1-3)Gal(b1-4)GlcNAc(b1-3)Gal(b1-4)GlcNAc(b1-6)]Man(a1-6)[GlcNAc(b1-3)Gal(b1-4)GlcNAc(b1-3)Gal(b1-4)GlcNAc(b1-3)Gal(b1-4)GlcNAc(b1-3)Gal(b1-4)GlcNAc(b1-2)Man(a1-3)]Man(b1-4)GlcNAc(b1-4)[Fuc(a1-6)]GlcNAc
# In short: as §1
binder,measurement,setting,value
B1,glycan array binding signal (z-score),[1],1.24
same,glycan array binding signal (z-score),[2],-0.452
same,glycan array binding signal (z-score),[3],0.374
same,glycan array binding signal (z-score),[4],0.253
same,glycan array binding signal (z-score),[5],0.781
same,glycan array binding signal (z-score),[6],-0.398
same,glycan array binding signal (z-score),[7],-0.527
same,glycan array binding signal (z-score),[8],0.435
same,glycan array binding signal (z-score),[9],-0.598
same,glycan array binding signal (z-score),[10],0.112
same,glycan array binding signal (z-score),[11],0.023
same,glycan array binding signal (z-score),[12],-0.411
same,glycan array binding signal (z-score),[13],-0.415
same,glycan array binding signal (z-score),[14],0.576
same,glycan array binding signal (z-score),[15],2.41
same,glycan array binding signal (z-score),[16],-0.413
same,glycan array binding signal (z-score),[17],-0.178
same,glycan array binding signal (z-score),[18],-0.894
same,glycan array binding signal (z-score),[19],-0.851
same,glycan array binding signal (z-score),[20],-0.643
same,glycan array binding signal (z-score),[21],-0.138
same,glycan array binding signal (z-score),[22],1.11
same,glycan array binding signal (z-score),[23],0.673
same,glycan array binding signal (z-score),[24],0.179
same,glycan array binding signal (z-score),[25],3.01
same,glycan array binding signal (z-score),[26],1.35
same,glycan array binding signal (z-score),[27],-0.248
same,glycan array binding signal (z-score),[28],1.43
same,glycan array binding signal (z-score),[29],-0.408
same,glycan array binding signal (z-score),[30],-0.021
same,glycan array binding signal (z-score),[31],-0.705
same,glycan array binding signal (z-score),[32],0.661
same,glycan array binding signal (z-score),[33],-0.113
same,glycan array binding signal (z-score),[34],0.259
same,glycan array binding signal (z-score),[35],0.191
same,glycan array binding signal (z-score),[36],0.458
same,glycan array binding signal (z-score),[37],0.904
same,glycan array binding signal (z-score),[38],0.449
same,glycan array binding signal (z-score),[39],0.447
same,glycan array binding signal (z-score),[40],0.41
same,glycan array binding signal (z-score),[41],-0.224
same,glycan array binding signal (z-score),[42],0.851
same,glycan array binding signal (z-score),[43],1.84
same,glycan array binding signal (z-score),[44],-0.479
same,glycan array binding signal (z-score),[45],-0.076

# As a short view, some entries already given:
binder,measurement,setting,value
B1,glycan array binding signal (z-score),[42],0.851
same,glycan array binding signal (z-score),[43],1.84
same,glycan array binding signal (z-score),[44],-0.479
